Data: PubChem BioAssay AID2685 (National Center for Advancing Translational Sciences (NCATS), 2010)
Some of the results follow. Shown are side measurements of this screen, not its main read-out; they come without a call. Compounds called inactive in the main read-out are mostly missing here. Words in brackets tell the shape of the fitted curve; partial curves, single points and poor fits give uncertain potencies.

Test: qHTS Assay for Lipid Storage Modulators in Drosophila S3 Cells;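 for cell number change: cells counted by Cell Tracker Red CMTPX staining in the red channel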
Details: BODIPY lipid droplet fluorescence, 18-24 h; for cell number change: measured here: cell count max response, cells fed with added oleic acid
Method in brief: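 Drosophila S3 cells loaded with oleic acid (400 uM, as added) and compounds at several concentrations; lipid droplets imaged by 488-nm laser-scanning cytometry, 500–530 nm intensity and object ratio to cell channel. Percent activity normalized to 20 uM Triacsin C.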

[1] = measured here: lipid fluorescence (Fed channel) AC50, cells fed with added oleic acid
[2] = measured here: cell number channel AC50, cells fed with added oleic acid

Structure (SMILES) | cell number change | AC50 [1] | AC50 [2]
Cc1ccc2[nH]c(=O)c(C(c3nnnn3CC3CCCO3)N3CCOCC3)cc2c1 (stereo not given) | -2.03% |  | 
COc1ccc(CC(=O)Nc2nnc(-c3cccc([N+](=O)[O-])c3)s2)cc1 |  | 326 nM [rising, full curve] | 
CCOC(=O)c1sc(-c2ccc(Br)cc2)cc1N | -17.7% |  | 
Cc1c(NC(=O)c2ccc(S(=O)(=O)N3CCOCC3)cc2)c(=O)n(-c2ccccc2)n1C | -12% | 4.11 nM [falling, full curve, poor fit] | 
CCCCNC(=O)CCc1nc2cccnc2n1Cc1ccc(OC)cc1 | 199% | 2060 nM [rising, partial curve] | 18400 nM [rising, partial curve]
O=C(CSc1nnc(NC(=O)C2CC(=O)N(c3ccc(F)cc3)C2)s1)NCC1CCCO1 (stereo not given) | -1.39% | 35500 nM [rising, single point] | 
CN1CCCN(C(=O)C2CCC(C(=O)N3CCCN(C)CC3)CC2)CC1 (stereo not given) | -24.4% |  | 
Cn1nnc2cc(C(=O)Nc3cccnc3)ccc21 | 3.2% | 4610 nM [falling, single point] | 
CC(=O)Nc1ccc(C(=O)OCC(=O)NC(=O)NC2CCCCC2)cc1 | 18.4% |  | 164 nM [rising, full curve, poor fit]
Cc1nnc(NC(=O)CSc2nnc(CC(=O)Nc3ccccc3F)n2C)s1 | -5.56% |  | 
O=C(/C=C/c1ccccc1)Nc1cccnc1Cl | -21.4% |  | 
N=c1n(CCO)c2ccccc2n1CCOc1ccc(Cl)cc1Cl | 13% |  | 
O=C(NCCc1nc2ccccc2[nH]1)/C(=C/c1ccc2c(c1)OCO2)NC(=O)c1ccccc1Cl | 32.1% | 29100 nM [rising, partial curve] | 3660 nM [rising, full curve, poor fit]
O=C(COC(=O)C1CCC1)NCc1ccccc1 | -10.5% | 16400 nM [falling, single point] | 
CN1CCN(C(=O)c2ccc(Cn3cc(Cl)cn3)o2)CC1 | 5.26% |  | 
COc1ccc(-c2c3c(nc4sc(C(=O)Nc5cc(C)on5)c(N)c24)CCC3)cc1 | 10.1% | 731 nM [rising, full curve] | 
CCN(CC)CCN1C(=O)C(=O)/C(=C(/O)c2ccncc2)C1c1ccccc1F (stereo not given) | 0.879% | 116 nM [rising, full curve, poor fit] | 
Cc1cccn2c(/C=N/OCc3ccc(F)cc3)c(-c3ccc(Cl)cc3)nc12 | -0.759% | 116 nM [falling, full curve, poor fit] | 
Cc1nnc(SCC(=O)NC23CC4CC(CC(C4)C2)C3)n(N)c1=O | 8.53% |  | 
COc1cc2c(cc1OC)CN(C(=O)CCCOc1ccc(Cl)cc1Cl)CC2 | -30% | 20600 nM [falling, single point] | 23100 nM [falling, single point]
Nc1cccn2c(-c3ccc(Cl)cc3)cnc12 | -45.1% | 29100 nM [falling, partial curve] | 1030 nM [falling, full curve]

A stretch taken from the entries so far:
Structure (SMILES) | cell number change | AC50 [1] | AC50 [2]
O=C(COC(=O)C1CCC1)NCc1ccccc1 | -10.5% | 16400 nM [falling, single point] | 
CN1CCN(C(=O)c2ccc(Cn3cc(Cl)cn3)o2)CC1 | 5.26% |  | 

The list goes on:

Structure (SMILES) | cell number change | AC50 [1] | AC50 [2]
CC(=O)NC(=S)Nc1ccc(N2CCOCC2)c(S(=O)(=O)Nc2cc(Cl)ccc2Cl)c1 | -2.71% | 1640 nM [falling, single point] | 411 nM [rising, partial curve, poor fit]
CCOc1ccc2oc(C(=O)OCC(=O)NC(=O)NC3CCCC3)c(C)c2c1 |  | 326 nM [falling, partial curve] | 5170 nM [falling, single point]
Cc1ccc(NC(=O)NNC(=O)c2cc3ccccc3cc2O)c(C)c1 | 20.7% | 35500 nM [rising, partial curve] | 
CC(OC(=O)c1cnccn1)C(=O)c1ccccc1 (stereo not given) | -75% | 5.8 nM [rising, full curve, poor fit] | 206 nM [falling, full curve]
COc1ccc(-c2nnc(Nc3nc4c(OC)cccc4s3)o2)cc1 | 4.69% | 29100 nM [falling, single point] | 
CCOC(=O)C1=C(C)NC2=C(C(=O)CC(c3cccs3)C2)C1c1cccs1 (stereo not given) |  | 8200 nM [falling, partial curve] | 
O=C(Nc1ccc(Cl)cc1)c1ccc(OC2CSC2)cc1 | -32.4% | 18400 nM [falling, single point] | 7310 nM [falling, partial curve, poor fit]
CN1CCN(NC(=O)/C=C/c2cccc(Cl)c2)CC1 | 18.8% |  | 820 nM [rising, full curve, poor fit]
O=C(O)Cc1n[nH]c(=O)c2ccccc12 | 4.48% | 6510 nM [rising, single point] | 
CN(CCCNS(=O)(=O)c1cccc2cccnc12)Cc1ccccc1 |  | 517 nM [rising, full curve, poor fit] | 
Cc1cccc(OCC(=O)NCC(=O)N/N=C/c2ccccc2)c1 | 3.6% |  | 
Cn1cc(C(=O)C(=O)NC2CCCCC2)c2ccccc21 | 25.4% | 5170 nM [rising, partial curve] | 
COC(=O)CSc1nnc(CCc2ccccc2)n1C | -0.549% |  | 
CN(c1cccc(NC(=O)c2ccc(C(C)(C)C)cc2)c1)S(C)(=O)=O | -9.23% | 18400 nM [falling, single point] | 
Cc1ccc(C(=O)NCCC(=O)N2CCCC2)cc1 | -0.275% |  | 
COc1ccc(Cc2nnc(NC(=O)C3CC(=O)N(c4ccccc4)C3)s2)cc1OC (stereo not given) | 1.32% | 1260 nM [rising, full curve, poor fit] | 
CCOc1cc(/C=N/Nc2cc(C)nc3ccc(C)cc23)ccc1O |  | 2590 nM [rising, single point] | 
Cc1occc1C(=O)NNC(=S)NCc1ccccc1 | 16.7% | 146 nM [rising, full curve, poor fit] | 
Cc1cc(OCC(=O)OCC(=O)N2c3ccccc3NC(=O)C2(C)C)ccc1Cl | -6.81% | 1030 nM [rising, full curve] | 1030 nM [rising, full curve]
COc1cc(NC(=O)C2CC2)c(C(=O)O)cc1OC | 4.24% | 6510 nM [rising, single point] | 
